{"source": "patent US20100190710A1", "about": "“IL-23 RECEPTOR ANTAGONISTS AND USES THEREOF” (Valorisation HSJ, Societe en Commandite, priority 2007, published 2010)", "key": {"IL-23R [1]": {"target": "T1, IL-23R (Mus musculus, UniProt Q8K4B4)", "T1 construct": "Spleens were sterilely removed from mice, sliced, and mashed in the presence of PBS buffer; from tissue; host or cells: mouse spleen: freshly isolated splenocytes, and CD4+ cells differentiated into TH17 cells", "T1 sequence (Q8K4B4 24-644)": "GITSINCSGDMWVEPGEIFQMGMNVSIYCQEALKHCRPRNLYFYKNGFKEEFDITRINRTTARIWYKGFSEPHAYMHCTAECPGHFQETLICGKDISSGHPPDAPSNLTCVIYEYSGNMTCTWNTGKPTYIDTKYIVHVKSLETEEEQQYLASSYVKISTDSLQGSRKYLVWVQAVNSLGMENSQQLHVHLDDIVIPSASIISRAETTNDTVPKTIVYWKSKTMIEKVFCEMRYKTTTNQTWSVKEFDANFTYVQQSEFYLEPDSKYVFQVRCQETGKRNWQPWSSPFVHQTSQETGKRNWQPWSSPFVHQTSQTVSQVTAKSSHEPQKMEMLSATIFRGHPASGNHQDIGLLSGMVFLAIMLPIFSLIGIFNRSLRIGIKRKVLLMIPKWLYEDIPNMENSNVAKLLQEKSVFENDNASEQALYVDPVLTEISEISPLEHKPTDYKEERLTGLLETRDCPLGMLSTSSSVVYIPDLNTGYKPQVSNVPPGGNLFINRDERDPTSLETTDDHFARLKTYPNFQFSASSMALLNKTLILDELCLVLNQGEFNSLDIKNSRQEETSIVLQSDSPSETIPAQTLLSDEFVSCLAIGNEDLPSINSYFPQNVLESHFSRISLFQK", "assay": "IL-23-induced STAT3 phosphorylation in freshly isolated splenocytes (Alpha Screen SureFire p-STAT-3)", "format": "cell-based", "procedure": "Spleens were sterilely removed from mice, sliced, and mashed in the presence of PBS buffer, 2% fetal bovine serum, and 1 mM EDTA. Tissue was allowed to pass through a number 26 syringe and was filtered through a 70 μm mesh nylon strainer. Cells were cultured with non-essential amino acids, 2 μg/ml of anti-CD3, and 20 μg/ml of anti-CD-28 as survival and differentiation factors.\n(§1) Splenocytes or TH17 cells were distributed in 384-well plates (Optiplate; Perkin Elmer) (100,000 cells/well). Cells were pre-incubated for 30 minutes with different concentrations of peptide APG-2305 or APG-2309 and incubated with 25 ng/ml of IL-23 (R&D systems) for 10 minutes. STAT3 phosphorylation was determined with the kit Alpha Screen SureFire p-STAT-3 assay from Perkin Elmer according to manufacturer's instructions. Briefly, after incubation with IL-23, cells were lysed and contacted with (1) protein A acceptor conjugated beads coated with anti-p-STAT-3 (Tyr705) and (2) streptavidin-coated donor beads. The resulting signal was measured with a Perkin Elmer Wallac En vision 2104 Multilabel reader. Graphs were generated using GraphPrism 4 software.\nThe effect of peptide APG-2305 and APG-2309 derivatives on IL-23-induced STAT3 phosphorylation was determined using CD-1 mice freshly isolated splenocytes and the Alpha Screen p-STAT3 assay (see above materials and methods) (FIGS. 6 and 7). […]"}, "IL-23R [2]": {"target": "T1, IL-23R", "assay": "IL-23-induced STAT3 phosphorylation in differentiated TH17 cells (Alpha Screen SureFire p-STAT-3)", "format": "cell-based", "settings": "listed as APG-2305", "procedure": "CD4+ cells were isolated from 2.5×10^8 splenocytes with the EasySep isolation kit (StemCell Technologies) according to the manufacturer's instructions. CD4+ cells were incubated overnight with non-essential amino acids and anti-CD3 and CD28 antibodies (see above). The next day the cells were split into 12-well plates (1-2×10^6 cells/well) and incubated with complete RPMI medium (10% FBS, Pen/Strep, and non-essential amino acids (1×)) and a differentiation cocktail containing 2 μg/ml of anti-CD3, 2 μg/ml of anti-CD28, 5 ng/ml of TGFb1, 20 ng/ml of IL-6, 10 ng/ml of IL-23, 2 μg/ml of anti-rat anti IFNγ and 10 μg/ml of anti-mouse IL-4 (final concentrations).\nas §1, with “Graphs were generated using GraphPrism 4 software.” left out"}, "[3]": {"target": "T2, IL-23R-expressing PMA-activated HL-60 cells (Homo sapiens, UniProt Q5VWK5)", "T2 construct": "endogenous in cells", "T2 sequence (Q5VWK5 24-629)": "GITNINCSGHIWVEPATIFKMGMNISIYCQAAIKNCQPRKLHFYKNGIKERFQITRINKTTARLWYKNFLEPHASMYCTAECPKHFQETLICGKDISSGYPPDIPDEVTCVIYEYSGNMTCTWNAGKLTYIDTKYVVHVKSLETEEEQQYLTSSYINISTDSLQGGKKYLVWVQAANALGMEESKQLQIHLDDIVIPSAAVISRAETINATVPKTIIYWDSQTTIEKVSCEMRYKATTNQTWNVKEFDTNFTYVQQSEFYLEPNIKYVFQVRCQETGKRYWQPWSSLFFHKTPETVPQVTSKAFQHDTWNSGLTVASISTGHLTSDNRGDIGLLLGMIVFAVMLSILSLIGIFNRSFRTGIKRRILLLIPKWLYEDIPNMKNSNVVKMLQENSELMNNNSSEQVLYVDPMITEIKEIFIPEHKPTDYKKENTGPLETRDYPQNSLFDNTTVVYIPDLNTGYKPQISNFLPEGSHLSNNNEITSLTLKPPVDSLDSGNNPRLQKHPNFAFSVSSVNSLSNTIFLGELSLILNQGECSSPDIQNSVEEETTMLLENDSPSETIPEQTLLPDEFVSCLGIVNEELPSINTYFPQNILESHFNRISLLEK", "assay": "[125I]-2305 binding to PMA-activated HL-60 cells", "settings": "PMA-activated vs non-activated HL-60; PBS pH 7.4; 1 hour"}, "[4]": {"test_system": "PMA-induced dermatitis (ear)", "format": "in vivo, CD-1 mice", "settings": "topical in PEG-400, final concentration 5 μM, 50 μl twice a day, 3-5 days", "from_the_text": "FIGS. 10A and 10B are a series of images and a graph showing efficacy of topical anti-IL-23R peptides in treating PMA-induced dermatitis. PMA-induced dermatitis is often utilized as a model of chronic (and scaling) dermatitis, reminiscent of psoriatic dermatitis. […] FIG. 10B is a graph showing the differences in weight (mg) of ear punches with control ears untreated with PMA. […] FIGS. 11A to 11C are a series of images and graphs showing dose-response to topical administration of peptide 2309 in PMA-induced dermatitis. FIG. 11A is a photographic representation of dose-dependent effects of topical administration of peptide 2309 (mixed in PEG-400) on PMA-induced dermatitis in CD-1 mice. Concentrations of peptide 2309≧100 nM show significant efficacy."}, "PMA-induced ear edema": {"test_system": "PMA-induced ear edema", "assay": "PMA-induced ear edema, enteral (oral) administration", "format": "in vivo, rats", "procedure": "FIGS. 13A and 13B are graphs showing the effect of peptides APG-2305 (FIG. 13A) and APG-2309 (FIG. 13B) on PMA-induced inflammation. Intraperitoneal administration is abreviated “i.p.” and oral administration is abreviated “p.o.” Peptides APG-2305 and APG-2309 were also given by enteral administration to rats to verify their oral availability. The peptides at various concentrations were injected (twice a day; 200 μl) into the stomach with a gavage needle (Number 20) starting at day 2 of PMA treatment. On day 4 the total peptide dose was given as a bolus and animals were sacrificed 4-6 hours later. […] Scrambled peptide of APG-2305 (5 mg/kg/day) and intraperitoneal APG-2305 served as negative and positive controls respectively. APG-2309 was also injected enterally but inhibit PMA-induced ear edema only slightly at 20 mg/kg administered orally (FIG. 13B). APG-2309 is more hydrophobic than APG-2305."}, "IL-23 receptor": {"target": "T3, IL-23 receptor (Homo sapiens, UniProt Q5VWK5)", "T3 sequence (Q5VWK5 24-629)": "T2 sequence (Q5VWK5 24-629)", "assay": "IL-23-induced STAT3 phosphorylation in PMA-activated HL-60 monocytes (Western blot)", "format": "cell-based", "set-up": "endogenous in cells", "procedure": "FIG. 2 is a graph showing the results of efficacy screening of peptides designed from the IL-23 receptor. HL-60 human monocytes were pre-incubated for 30 minutes with the particular peptides (1 μM) and stimulated for 15 minutes with IL-23 (10 ng/ml). Western Blot analysis of phosphorylated-STAT3 and total STAT3 was performed on cell lysates. Immunoblot densitometry was measured using ImagePro4+ software. […] FIGS. 3A and 3B are graphs showing inhibition of IL-23-induced STAT3 phosphorylation and TNFα generation. […] Western Blot analysis was performed on cell lysates, and immunoblot densitometry was measured using ImagePro4+ software. […] TNFα production was quantified by ELISA 24 hours after stimulation with IL-23 using the Quantikine ELISA Kit (R&D systems). […] D-peptides 2303, 2305, 2307 and 2309 (1 μM) inhibit IL-23-induced STAT3 phosphorylation in phorbol 12-myristate 13-acetate (PMA)-activated human monocytes (HL-60) (FIG. 2)."}}, "note": "“Also recorded” adds a separate entry of the source. Part of at least one peptide drawing is inferred or uncertain, most often the ends. Peptide text beside a SMILES is read from it.", "data": [{"smiles": "CC(C)CC(NC(=O)C(Cc1ccc(O)cc1)NC(=O)C(CCC(N)=O)NC(=O)C(CCC(N)=O)NC(=O)C(CCC(=O)O)NC(=O)C(CCC(=O)O)NC(=O)C(CCC(=O)O)NC(=O)C(N)C(C)O)C(=O)O", "note": "(stereo not drawn) [Peptide 2305, TEEEQQYL] (H-TEEEQQYL-OH; configuration not given here; N-terminus and C-terminus assumed)", "values": [{"measurement": "effect on IL-23-induced STAT3 phosphorylation", "setting": "IL-23R [1]; freshly isolated splenocytes, listed as APG-2305", "result": "inhibit; also recorded: showed efficacy"}, {"measurement": "IC50", "setting": "IL-23R [1]; mouse splenocytes, 25 ng/ml mouse IL-23 (FIG. 5), read-out: potency (IC50), IL-23-induced STAT3 phosphorylation", "result": 1, "unit": "nM"}, {"measurement": "effect on IL-23-induced STAT3 phosphorylation", "setting": "IL-23R [2]", "result": "inhibit; also recorded: showed efficacy"}, {"measurement": "specific binding to IL-23R-expressing cells", "setting": "[3]", "result": "specific binding; also recorded: specifically bound to IL-23R-expressing phorbol 12-myristate 13-acetate (PMA)-activated monocytes, but not to IL-23R-devoid monocytes"}, {"measurement": "ear redness and ear weight (edema)", "setting": "[4]", "result": "marginal efficacy"}, {"measurement": "ear edema", "setting": "PMA-induced ear edema; enteral by gavage twice a day, various concentrations", "result": "prevented ear edema in a dose-dependent fashion"}, {"measurement": "ear edema", "setting": "PMA-induced ear edema; enteral, 5 mg/kg/day", "result": "total prevention of edema"}, {"measurement": "effect on IL-23-induced STAT3 phosphorylation", "setting": "IL-23 receptor; PMA-activated HL-60 human monocytes, peptide 1 μM, 30 min pre-incubation, IL-23 10 ng/ml, 15 min", "result": "demonstrable efficacy; also recorded: inhibit"}, {"measurement": "efficacy in IL-23R expressing vs native monocytes", "setting": "IL-23 receptor; PMA-activated vs non-activated human monocytes", "result": "shown in IL-23R expressing PMA-activated human monocytes, but not in native (non-activated) monocytes"}]}]}
